Measurements taken from the supplement of paper PMC10849652.
The other results are listed elsewhere or left out.

Protein sequences, listed by entry. Tags and fused reporters are not part of them. Lines headed by an entry give the natural chain unless they say otherwise; changes in a name come on top.
UniProt Q9UNL4, whole entry, looked up: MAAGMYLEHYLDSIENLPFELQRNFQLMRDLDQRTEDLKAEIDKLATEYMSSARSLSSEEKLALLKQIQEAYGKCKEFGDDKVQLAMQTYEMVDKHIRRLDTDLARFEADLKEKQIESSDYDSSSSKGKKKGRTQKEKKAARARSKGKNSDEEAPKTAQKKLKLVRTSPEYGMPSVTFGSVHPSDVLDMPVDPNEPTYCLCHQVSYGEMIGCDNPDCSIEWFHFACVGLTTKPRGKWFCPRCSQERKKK
UniProt Q9BT40: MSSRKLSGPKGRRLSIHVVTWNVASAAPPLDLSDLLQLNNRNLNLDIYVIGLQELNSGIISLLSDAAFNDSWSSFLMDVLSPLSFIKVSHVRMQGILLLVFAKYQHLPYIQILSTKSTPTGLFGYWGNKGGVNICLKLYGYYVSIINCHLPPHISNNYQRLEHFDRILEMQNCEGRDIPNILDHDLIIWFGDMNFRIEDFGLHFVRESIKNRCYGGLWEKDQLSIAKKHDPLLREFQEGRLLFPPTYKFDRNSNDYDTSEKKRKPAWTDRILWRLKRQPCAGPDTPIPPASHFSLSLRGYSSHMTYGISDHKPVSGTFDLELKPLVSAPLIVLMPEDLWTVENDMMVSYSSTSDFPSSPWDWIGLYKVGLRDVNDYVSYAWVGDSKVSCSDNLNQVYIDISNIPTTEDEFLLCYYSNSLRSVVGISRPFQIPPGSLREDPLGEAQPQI
UniProt Q9UK53: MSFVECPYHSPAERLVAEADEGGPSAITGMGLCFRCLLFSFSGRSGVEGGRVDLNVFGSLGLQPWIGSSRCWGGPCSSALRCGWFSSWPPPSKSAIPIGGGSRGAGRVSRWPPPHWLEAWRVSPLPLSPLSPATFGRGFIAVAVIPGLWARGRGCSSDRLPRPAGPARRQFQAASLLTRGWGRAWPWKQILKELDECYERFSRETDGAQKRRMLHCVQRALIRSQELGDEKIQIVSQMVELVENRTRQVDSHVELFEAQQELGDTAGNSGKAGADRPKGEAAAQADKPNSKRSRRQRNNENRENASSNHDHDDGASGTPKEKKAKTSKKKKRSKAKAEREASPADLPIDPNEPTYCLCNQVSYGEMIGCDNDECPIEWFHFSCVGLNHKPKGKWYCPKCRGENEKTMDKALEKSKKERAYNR
UniProt P28290: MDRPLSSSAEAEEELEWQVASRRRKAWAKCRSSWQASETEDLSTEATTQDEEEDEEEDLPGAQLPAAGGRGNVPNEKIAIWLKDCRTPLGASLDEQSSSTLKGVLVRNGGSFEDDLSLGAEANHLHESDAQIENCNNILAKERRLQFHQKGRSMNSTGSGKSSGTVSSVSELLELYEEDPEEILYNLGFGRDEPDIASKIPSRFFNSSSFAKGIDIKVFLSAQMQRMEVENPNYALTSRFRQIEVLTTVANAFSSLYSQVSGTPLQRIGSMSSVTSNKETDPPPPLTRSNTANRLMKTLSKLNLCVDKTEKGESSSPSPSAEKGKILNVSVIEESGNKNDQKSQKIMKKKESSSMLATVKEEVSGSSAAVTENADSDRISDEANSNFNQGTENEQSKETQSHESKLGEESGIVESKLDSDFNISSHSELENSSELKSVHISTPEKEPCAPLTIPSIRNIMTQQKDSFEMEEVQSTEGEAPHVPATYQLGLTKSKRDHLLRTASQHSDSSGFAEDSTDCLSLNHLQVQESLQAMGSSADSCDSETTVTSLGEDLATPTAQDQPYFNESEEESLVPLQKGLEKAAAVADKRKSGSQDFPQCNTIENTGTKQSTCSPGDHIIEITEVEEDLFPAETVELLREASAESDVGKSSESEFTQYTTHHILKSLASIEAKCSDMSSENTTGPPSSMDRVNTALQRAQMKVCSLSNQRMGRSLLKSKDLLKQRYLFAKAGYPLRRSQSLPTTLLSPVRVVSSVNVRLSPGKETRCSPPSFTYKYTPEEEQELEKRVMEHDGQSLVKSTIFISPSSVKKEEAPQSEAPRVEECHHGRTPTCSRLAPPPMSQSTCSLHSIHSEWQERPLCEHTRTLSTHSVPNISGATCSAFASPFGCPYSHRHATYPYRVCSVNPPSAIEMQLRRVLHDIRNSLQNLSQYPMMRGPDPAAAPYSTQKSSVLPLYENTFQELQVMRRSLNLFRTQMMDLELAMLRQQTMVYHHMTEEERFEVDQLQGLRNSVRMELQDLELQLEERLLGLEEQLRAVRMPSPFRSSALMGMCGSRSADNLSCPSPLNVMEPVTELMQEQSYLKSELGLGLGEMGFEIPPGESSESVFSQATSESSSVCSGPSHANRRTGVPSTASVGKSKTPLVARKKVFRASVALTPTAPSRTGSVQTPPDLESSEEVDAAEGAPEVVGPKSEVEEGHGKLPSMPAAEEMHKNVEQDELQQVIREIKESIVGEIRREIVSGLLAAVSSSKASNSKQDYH
UniProt Q9BW83: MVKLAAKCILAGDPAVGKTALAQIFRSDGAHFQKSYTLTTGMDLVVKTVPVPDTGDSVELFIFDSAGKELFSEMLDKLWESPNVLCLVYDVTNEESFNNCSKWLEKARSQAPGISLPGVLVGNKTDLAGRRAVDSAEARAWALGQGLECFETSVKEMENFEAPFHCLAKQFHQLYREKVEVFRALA
UniProt P58166: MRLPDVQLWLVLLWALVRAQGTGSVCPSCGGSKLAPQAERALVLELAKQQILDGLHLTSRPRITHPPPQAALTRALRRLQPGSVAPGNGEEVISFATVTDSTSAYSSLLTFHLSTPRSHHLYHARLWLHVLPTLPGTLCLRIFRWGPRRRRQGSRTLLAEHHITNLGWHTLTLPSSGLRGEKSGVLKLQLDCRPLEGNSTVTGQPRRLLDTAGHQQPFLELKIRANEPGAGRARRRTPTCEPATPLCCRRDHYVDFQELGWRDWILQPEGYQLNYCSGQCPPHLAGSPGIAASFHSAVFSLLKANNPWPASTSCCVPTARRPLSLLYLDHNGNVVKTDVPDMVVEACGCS
UniProt Q8NBZ0, whole entry, looked up: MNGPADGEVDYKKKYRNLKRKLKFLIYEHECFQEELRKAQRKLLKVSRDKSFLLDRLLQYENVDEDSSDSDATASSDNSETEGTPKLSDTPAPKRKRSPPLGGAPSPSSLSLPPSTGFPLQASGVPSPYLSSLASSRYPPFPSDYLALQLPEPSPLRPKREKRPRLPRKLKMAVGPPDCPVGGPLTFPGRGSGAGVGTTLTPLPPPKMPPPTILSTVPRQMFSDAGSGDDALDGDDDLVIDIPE
UniProt Q8IU81: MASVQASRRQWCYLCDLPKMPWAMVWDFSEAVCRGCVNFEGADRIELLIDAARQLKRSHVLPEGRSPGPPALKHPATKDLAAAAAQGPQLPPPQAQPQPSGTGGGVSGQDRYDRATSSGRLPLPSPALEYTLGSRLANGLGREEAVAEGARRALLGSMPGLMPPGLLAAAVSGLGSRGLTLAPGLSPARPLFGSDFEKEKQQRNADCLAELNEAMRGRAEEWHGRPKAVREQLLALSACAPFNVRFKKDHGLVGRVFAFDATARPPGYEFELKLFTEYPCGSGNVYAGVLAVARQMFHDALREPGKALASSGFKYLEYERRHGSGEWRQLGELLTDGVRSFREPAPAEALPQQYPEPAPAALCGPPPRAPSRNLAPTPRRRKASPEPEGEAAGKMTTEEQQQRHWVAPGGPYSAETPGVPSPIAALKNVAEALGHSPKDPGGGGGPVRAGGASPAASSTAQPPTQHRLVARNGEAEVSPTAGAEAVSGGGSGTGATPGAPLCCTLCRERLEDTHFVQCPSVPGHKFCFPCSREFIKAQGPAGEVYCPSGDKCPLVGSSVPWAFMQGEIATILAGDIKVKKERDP
UniProt Q08334: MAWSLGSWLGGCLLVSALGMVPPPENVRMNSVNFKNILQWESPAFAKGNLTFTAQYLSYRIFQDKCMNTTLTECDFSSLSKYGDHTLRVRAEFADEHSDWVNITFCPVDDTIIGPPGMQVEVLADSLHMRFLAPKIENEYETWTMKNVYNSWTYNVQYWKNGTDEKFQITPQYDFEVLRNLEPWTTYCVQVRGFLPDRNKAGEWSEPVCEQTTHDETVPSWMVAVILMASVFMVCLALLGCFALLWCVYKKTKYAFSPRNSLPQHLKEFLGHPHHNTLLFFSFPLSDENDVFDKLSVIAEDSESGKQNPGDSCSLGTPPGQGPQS
UniProt P23677, whole entry, looked up: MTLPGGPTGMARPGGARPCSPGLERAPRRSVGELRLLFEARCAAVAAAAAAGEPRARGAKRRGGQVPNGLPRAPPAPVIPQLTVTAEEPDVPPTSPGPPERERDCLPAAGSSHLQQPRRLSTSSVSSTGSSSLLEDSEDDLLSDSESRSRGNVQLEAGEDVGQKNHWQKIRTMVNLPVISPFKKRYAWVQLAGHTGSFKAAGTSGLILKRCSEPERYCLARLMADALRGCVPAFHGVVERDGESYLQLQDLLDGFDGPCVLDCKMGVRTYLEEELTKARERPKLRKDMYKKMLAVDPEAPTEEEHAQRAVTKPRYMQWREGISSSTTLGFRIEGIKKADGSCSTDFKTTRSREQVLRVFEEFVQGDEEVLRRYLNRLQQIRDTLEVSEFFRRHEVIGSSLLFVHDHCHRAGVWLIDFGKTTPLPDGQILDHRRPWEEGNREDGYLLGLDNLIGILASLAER
UniProt P50213: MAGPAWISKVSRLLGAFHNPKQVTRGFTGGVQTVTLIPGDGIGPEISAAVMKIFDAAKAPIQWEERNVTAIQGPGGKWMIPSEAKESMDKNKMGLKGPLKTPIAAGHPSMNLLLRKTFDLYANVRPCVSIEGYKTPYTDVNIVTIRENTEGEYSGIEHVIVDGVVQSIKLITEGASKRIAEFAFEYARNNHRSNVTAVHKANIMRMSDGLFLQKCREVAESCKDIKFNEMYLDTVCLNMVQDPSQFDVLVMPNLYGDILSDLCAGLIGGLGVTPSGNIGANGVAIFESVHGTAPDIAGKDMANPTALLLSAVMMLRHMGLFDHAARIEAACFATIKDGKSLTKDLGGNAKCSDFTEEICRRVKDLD
UniProt Q9NRY2: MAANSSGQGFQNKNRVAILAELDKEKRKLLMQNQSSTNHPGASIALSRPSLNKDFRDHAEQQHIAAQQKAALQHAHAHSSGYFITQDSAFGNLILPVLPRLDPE
UniProt P24593, whole entry, looked up: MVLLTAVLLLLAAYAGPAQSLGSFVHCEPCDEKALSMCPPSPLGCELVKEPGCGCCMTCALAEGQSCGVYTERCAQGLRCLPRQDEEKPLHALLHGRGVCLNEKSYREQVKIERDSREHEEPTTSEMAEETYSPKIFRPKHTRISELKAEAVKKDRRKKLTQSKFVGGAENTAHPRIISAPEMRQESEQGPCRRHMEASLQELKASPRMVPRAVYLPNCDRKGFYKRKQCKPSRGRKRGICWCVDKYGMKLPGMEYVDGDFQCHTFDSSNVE
UniProt P31785: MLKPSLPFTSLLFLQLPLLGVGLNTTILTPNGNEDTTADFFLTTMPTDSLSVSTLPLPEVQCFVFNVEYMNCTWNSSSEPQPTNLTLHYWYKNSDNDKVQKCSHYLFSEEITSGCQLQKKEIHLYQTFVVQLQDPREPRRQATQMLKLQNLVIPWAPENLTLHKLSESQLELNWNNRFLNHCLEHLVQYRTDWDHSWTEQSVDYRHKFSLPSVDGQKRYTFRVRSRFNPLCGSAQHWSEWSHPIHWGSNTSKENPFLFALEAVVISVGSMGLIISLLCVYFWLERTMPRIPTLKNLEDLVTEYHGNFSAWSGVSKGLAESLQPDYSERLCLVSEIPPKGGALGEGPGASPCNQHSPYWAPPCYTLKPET
UniProt P24592: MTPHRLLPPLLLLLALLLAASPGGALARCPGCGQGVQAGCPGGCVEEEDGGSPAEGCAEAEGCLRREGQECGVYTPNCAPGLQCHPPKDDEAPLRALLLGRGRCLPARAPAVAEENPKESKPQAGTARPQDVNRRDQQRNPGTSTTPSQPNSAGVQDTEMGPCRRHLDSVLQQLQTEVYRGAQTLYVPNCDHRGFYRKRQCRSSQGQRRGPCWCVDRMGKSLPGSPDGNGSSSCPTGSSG
UniProt O14713: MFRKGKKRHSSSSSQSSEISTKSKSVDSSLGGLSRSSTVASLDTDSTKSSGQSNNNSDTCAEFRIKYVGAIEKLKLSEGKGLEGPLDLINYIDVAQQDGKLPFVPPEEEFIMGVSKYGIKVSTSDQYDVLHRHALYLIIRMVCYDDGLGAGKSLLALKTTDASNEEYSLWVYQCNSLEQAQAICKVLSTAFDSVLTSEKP
UniProt Q92551: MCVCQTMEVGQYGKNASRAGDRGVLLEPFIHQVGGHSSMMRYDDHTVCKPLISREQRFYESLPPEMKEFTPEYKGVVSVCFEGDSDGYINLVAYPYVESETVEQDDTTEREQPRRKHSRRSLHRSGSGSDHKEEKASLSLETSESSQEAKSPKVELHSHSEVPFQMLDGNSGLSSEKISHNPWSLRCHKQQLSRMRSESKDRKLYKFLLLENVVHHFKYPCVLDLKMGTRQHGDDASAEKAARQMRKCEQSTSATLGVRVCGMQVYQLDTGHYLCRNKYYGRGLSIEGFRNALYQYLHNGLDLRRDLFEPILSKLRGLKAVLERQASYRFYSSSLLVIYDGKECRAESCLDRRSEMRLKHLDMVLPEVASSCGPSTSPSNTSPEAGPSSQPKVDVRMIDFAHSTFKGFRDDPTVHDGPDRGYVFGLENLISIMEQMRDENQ

Experiments:
Experiment in all cases: log2 fold change, soluble protein after heating vs DMSO (PISA); higher = thermal stabilisation; K562 cells, 10 uM, 30 min; active = over 0.2 and 3.5 SD of the protein, either way, in both replicates (recomputed)
[1] = compound: Cc1sc2c(c1C)C(c1ccc(Cl)cc1)=N[C@@H](CC(=O)OC(C)(C)C)c1nnc(C)n1-2
Outline: (§1)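 Soluble protein was defined as the supernatant after 21,000xg for 90 min. It came from K562 cells at 2×10^6 cells/mL given 10 μM compound for 30 min, heated in aliquots for 3 min across 48°C-58°C, pooled, and extracted in PBS with 0.5% NP-40 at 4°C, and was quantified by TMTpro 16plex LC-MS/MS with equalised channel sums. Thermal stability against control samples, from duplicates, is reported as log2 fold change.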

[2] = compound: C1=CC=C(C=C1)[C@H](COC2=CC3=C(C=C2)NC(=O)N3)NC(=O)C4=CC=CN(C4=O)CC5=CC(=C(C=C5)F)F
Outline: as §1

[3] = compound: CC1=C2C(=CC=C1)N=C(N(C2=O)C3=CC=CC=C3C)CN4C=NC5=C(N=CN=C54)N
Outline: as §1

[4] = compound: CC1=C(SC2=C1C(=N[C@H](C3=NN=C(N32)C)CC(=O)N)C4=CC=C(C=C4)Cl)C
Outline: as §1

[5] = compound: c1ccc([C@@H]2C[C@H]2NC2CCNCC2)cc1
Outline: as §1

ING4 (UniProt Q9UNL4)
log2 fold change [1]: inactive: -0.066

IGKC (UniProt P01834)
log2 fold change [2]: inactive: 0.18 | log2 fold change [3]: inactive: -0.014 | log2 fold change [1]: inactive: -0.28

INPP5K (UniProt Q9BT40)
log2 fold change [4]: inactive: -0.1 | log2 fold change [3]: inactive: 0.006 | log2 fold change [1]: inactive: 0.016 | log2 fold change [5]: inactive: -0.153

ING1 (UniProt Q9UK53)
log2 fold change [2]: inactive: -0.025 | log2 fold change [4]: inactive: -0.02 | log2 fold change [1]: inactive: -0.018 | log2 fold change [5]: inactive: -0.091

ITPRID2 (UniProt P28290)
log2 fold change [3]: inactive: 0.106

INTS1 (UniProt Q8N201)
log2 fold change [1]: inactive: 0.075

IFT27 (UniProt Q9BW83)
log2 fold change [4]: inactive: -0.056 | log2 fold change [5]: inactive: 0.137

IKZF1 (UniProt R9R4D9)
log2 fold change [4]: inactive: 0.08 | log2 fold change [1]: inactive: 0.039 | log2 fold change [5]: inactive: -0.159

IGF2 isoform 3 (UniProt P01344)
log2 fold change [3]: inactive: 0.077

ITM2C (UniProt Q9NQX7)
log2 fold change [2]: inactive: -0.077 | log2 fold change [4]: inactive: 0.007 | log2 fold change [3]: inactive: 0.122 | log2 fold change [5]: inactive: -0.121

INHBE (UniProt P58166)
log2 fold change [2]: inactive: -0.025 | log2 fold change [3]: inactive: 0.142

ISL2 (UniProt Q96A47)
log2 fold change [2]: inactive: -0.075 | log2 fold change [4]: inactive: 0.078 | log2 fold change [5]: inactive: -0.135

INO80E (UniProt Q8NBZ0)
log2 fold change [2]: inactive: 0.115 | log2 fold change [1]: inactive: 0.145

ITPR3 (UniProt Q14573)
log2 fold change [4]: inactive: -0.217 | log2 fold change [3]: inactive: 0.195 | log2 fold change [5]: inactive: 0.143

IQSEC2 (UniProt Q5JU85)
log2 fold change [4]: inactive: -0.044 | log2 fold change [5]: inactive: -0.046

ITGA2B (UniProt P08514)
log2 fold change [4]: inactive: 0.022 | log2 fold change [3]: inactive: 0.112 | log2 fold change [1]: inactive: 0.029 | log2 fold change [5]: inactive: -0.043

IRF2BP1 (UniProt Q8IU81)
log2 fold change [2]: inactive: -0.004 | log2 fold change [4]: inactive: 0.033 | log2 fold change [1]: inactive: -0.017 | log2 fold change [5]: inactive: 0.037

IL10RB (UniProt Q08334)
log2 fold change [2]: inactive: -0.081 | log2 fold change [3]: inactive: -0.149 | log2 fold change [1]: inactive: 0.029

ITPKA (UniProt P23677)
log2 fold change [2]: inactive: -0.126 | log2 fold change [3]: inactive: 0.208 | log2 fold change [1]: inactive: 0.083

ITPR1 (UniProt Q14643)
log2 fold change [2]: inactive: -0.034 | log2 fold change [4]: inactive: -0.065 | log2 fold change [5]: inactive: -0.356

IDH3A isoform 2 (UniProt P50213)
log2 fold change [2]: inactive: 0.118 | log2 fold change [4]: inactive: 0.251 | log2 fold change [1]: inactive: -0.069 | log2 fold change [5]: inactive: -0.059

INIP (UniProt Q9NRY2)
log2 fold change [3]: inactive: 0.199

IGFBP5 (UniProt P24593)
log2 fold change [3]: inactive: 0.189 | log2 fold change [1]: inactive: -0.456

IGHG1 (UniProt P01857)
log2 fold change [2]: inactive: -0.001 | log2 fold change [3]: inactive: -0.105

IGLL5 (UniProt B9A064)
log2 fold change [2]: inactive: -0.059 | log2 fold change [1]: inactive: -0.032

IL2RG (UniProt P31785)
log2 fold change [4]: inactive: -0.494 | log2 fold change [3]: inactive: -0.072 | log2 fold change [1]: inactive: 0 | log2 fold change [5]: inactive: 0.064

IGFBP6 (UniProt P24592)
log2 fold change [4]: inactive: 0.018 | log2 fold change [3]: inactive: 0.011 | log2 fold change [5]: inactive: 0.01

ITGB1BP1 (UniProt O14713)
log2 fold change [2]: inactive: 0.02 | log2 fold change [1]: inactive: -0.094

IL17RA (UniProt Q96F46)
log2 fold change [1]: inactive: -0.215

IP6K1 (UniProt Q92551)
log2 fold change [2]: inactive: 0.053 | log2 fold change [4]: inactive: 0.059 | log2 fold change [1]: inactive: 0.194 | log2 fold change [5]: inactive: -0.135
